The whole screen tested about 400,000 compounds, of which about 5,500 (1.4%) were called active. Inconclusive means that the source gave no clear call. Such entries were picked first, then a sample of the others. Calls come from the whole dose curve; as a rule, active = well fitted cell-killing curve with a large enough effect; inconclusive = small, poorly fitted or top-dose-only effect, or effect the other way; inactive = flat fitted curve, though single readings scatter. A potency beside an inconclusive call is a rough fit, not a confirmed value.
Experiment: qHTS assay for MDR1-selective chemotherapeutics: Primary screen using the parental adenocarcinoma cell KB-3-1; note: nearly all actives have a fitted effect of over 60% in size
Details: KB-3-1 viability, CellTiter-Glo ATP luminescence, 72 h; activity change, negative = cytotoxic: at 46.1 µM (top of the series)
Excerpt: A prime difficulty in effectively treating cancer is the development of cellular resistance to multiple structurally unrelated anticancer drugs, a phenomenon known as multidrug resistance (MDR). […] Numerous strategies to overcome P-gp-mediated MDR have been explored, including the design of drugs that evade recognition and efflux, and development of inhibitors to block efflux and restore drug accumulation. […] An alternative approach is to exploit resistance by identifying drugs that target MDR cells over the non-resistant parental cells from which they were selected. […] The development of MDR1-selective agents represents a new strategy for resolving multidrug resistance, as it remains a long-standing clinical challenge for cancer chemotherapy.
Our goal is to identify compounds that selectively kill P-gp-expressing MDR cells. We will identify MDR1-selective compounds by comparing toxicity of compounds in the screening library against parental, drug-naive (KB-3-1) adenocarcinoma cells as well as their drug-selected MDR sub-line (KB-V1). The differential toxicity of compounds against these two cell lines will be used to identify MDR1-selective compounds, whose cytotoxicity is potentiated, rather than diminished, by P-gp expression. This assay will be utilized to conduct a quantitative high-throughput screen (qHTS) in collaboration with the NIH Chemical Genomics Center to identify selective agents, and probe hits arising from the screen will be validated using secondary assays and characterized through a well-established follow-up research program. This screen was run against the entire NCGC library collection of about 400,000 compounds.
NIH Molecular Libraries Probe Production Network [MLPCN]
NIH Chemical Genomics Center [NCGC]
PI: Michael Gottesman PhD, National Cancer Institute, NIH
Briefly, 5 microL of media containing either KB-3-1 cells (columns 1-2, 4-48) are dispensed into Greiner white, treated solid-bottom 1536-well assay plates (media-only control is added to column 3). Compounds are then transferred via Kalypsys pin tool equipped with 1536-pin array (10 nL slotted pins, V&P Scientific, San Diego, CA). Following addition of compound, the plates are incubated at 37 degrees C for 72 hours. CellTiter-Glo (2.5 µL/well) is then added, and the plates are read in a ViewLux reader (Perkin-Elmer, clear luminescence filter, 1 second exposure, 1x binning) following a 10 minute incubation. All cells are dispensed in DMEM phenol-red free media containing 10% FBS.
Library plates were screened starting from the lowest and proceeding to the highest concentration. Vehicle-only plates, with DMSO being pin-transferred to columns 5-48, will be inserted uniformly at the beginning and the end of each library in order to monitor and record any shifts in the background, which can be affected by reagent dispensers or loss in enzyme activity over time. Screening data will be corrected, normalized, and concentration-effect relationships will be derived by using publicly-available NCGC, NCATS curve fitting algorithms (http://ncgc.nih.gov/pub/openhts).
% is set by controls: 0 for no effect and ±100 for the full control effect; potency is the fitted concentration of half-maximal effect.

SMILES	Potency	activity change, negative = cytotoxic
CS(=O)(=O)c1ccc(Nc2nc(C(N)Cc3ccc(Cl)cc3)cs2)cc1 (stereo not drawn)	inconclusive: 20.6 µM [cytotoxic, single point]	
C[C@@H]1CC[C@H]2C(=O)N3[C@@H](CC[C@@H](C)[C@@H]3c3ccc(Br)cc3)C(=O)N2[C@H]1c1ccc(Br)cc1	inconclusive: 29.1 µM [cytotoxic, single point]	
COc1ccc(OC)c(C2C=C(c3ccc(C)c(C)c3)Nc3nnnn32)c1 (stereo not drawn)	active: 6.51 µM	
O=C1NCCc2c1[nH]c1ccc([N+](=O)[O-])cc21	active: 1.64 µM	
COc1ccc2c(c1)OC[C@H]1[C@H]2N2C(=O)c3ccccc3NC(=O)[C@@]2(C)[C@H]1c1ccccc1	active: 20.6 µM	
O=C1NC(Cc2ccccc2)c2nc3ccccc3c(=O)n2-c2cc3ccccc3cc21 (stereo not drawn)	active: 13 µM	
CCOC(=O)[C@]12CCC=C1N(Cc1ccc3c(c1)OCO3)C(=O)[C@H](CC(=O)NCCCCc1ccccc1)C2	inconclusive: 29.1 µM [cytotoxic, single point]	
C=CCSC1=N/C(=C\c2cc(OCC)c(OC(C)=O)c([N+](=O)[O-])c2)C(=O)S1	inactive	
COC(=O)[C@@]1(Cc2ccc(F)cc2)[C@H]2c3cc(C(=O)N(C)C)n(Cc4ccc(S(C)(=O)=O)cc4)c3C[C@H]2CN1C(=O)c1ccccc1	inactive	
COc1ccc(CCN(C)C(=O)C2CCN(Cc3ccc(C)cc3)CC2)cc1OC	inconclusive: 29.1 µM [cytotoxic, single point]	
CC(C)C(=O)Nc1ccc(N2CCOCC2)c(S(=O)(=O)Nc2ccccc2Cl)c1	inconclusive: 2.31 µM [cytotoxic, full curve]	
O=C1CCCc2cc(S(=O)(=O)NCC3CCC(C(=O)NCc4ccc(F)cc4)CC3)ccc2N1 (stereo not drawn)	inactive	
COc1ccc(-n2ncc3c(NCCN4CCOCC4)ncnc32)cc1	inactive	
CCS(=O)(=O)N1CCN=C1SCc1ccccc1	inactive	
CC(C)CNC(=O)CN(c1cccc(Cl)c1)S(C)(=O)=O	inconclusive: 29.1 µM [rising, single point]	
CCn1c(-c2cc3ccccc3cc2O)n[nH]c1=S	inconclusive: 23.1 µM [cytotoxic, single point]	
COc1ccc(C2C(C(C)=O)=C(O)C(=O)N2c2nccs2)cc1OC (stereo not drawn)	inactive	
Cn1c(=O)c2c(nc(N/N=C/c3cccs3)n2Cc2ccc(Br)cc2)n(C)c1=O	inconclusive: 32.6 µM [cytotoxic, partial curve, poor fit]	
CC(C)c1ccc(N(C(=O)CNC(=O)c2ccco2)C(C(=O)NC2CCCC2)c2ccncc2)cc1 (stereo not drawn)	inconclusive: 4.61 µM [rising, full curve, poor fit]	
COc1ccc(C(=O)NC2CCCc3c2cnn3-c2ccc(C)c(C)c2)c(OC)c1OC (stereo not drawn)	inactive	
O=C(Cn1ncc2c(=O)oc3ccccc3c21)N1CCN(c2ccc(Cl)cc2)CC1	inactive	

SMILES	Potency	activity change, negative = cytotoxic
CC(=O)Oc1ccc(Cn2c(C)c(C(=O)N(C)Cc3ccc(F)cc3)sc2=O)cc1	inconclusive: 32.6 µM [cytotoxic, partial curve, poor fit]	
Cc1cnc(C(=O)OCC(=O)Nc2ccccc2-c2ccccc2)cn1	inconclusive: 0.0461 µM [rising, full curve]	
CCCCCn1nnnc1-c1nc2cc3ccccc3cc2[nH]c1=O	inconclusive: 20.6 µM [cytotoxic, partial curve, poor fit]	
CC(C)C(=O)NC(c1ccc(N(C)C)cc1)c1ccc2cccnc2c1O (stereo not drawn)	inconclusive: 0.92 µM [cytotoxic, full curve, poor fit]	
CCc1cccc(NC(=O)Cn2nc3c4cc(F)ccc4n(Cc4cccc(C)c4)cc-3c2=O)c1		inconclusive: 5.45%
COc1ccc(N2CCN(c3oc(Cc4ccccc4)nc3C#N)CC2)cc1	inconclusive: 29.1 µM [cytotoxic, single point]	
COC(=O)[C@@]1(Cc2ccc(F)cc2)[C@H]2c3cc(C(=O)N(C)C)n(CC4CC4)c3C[C@H]2CN1C(=O)c1ccccc1	inconclusive: 23.1 µM [cytotoxic, single point]	
CC1CCN(CC(=O)Nc2cccc(C(=O)Nc3cccc(C(F)(F)F)c3)c2)CC1	inconclusive: 25.9 µM [cytotoxic, partial curve, poor fit]	
COc1ccc(CN2CC(=O)N3[C@H]4c5cc(C)ccc5OC[C@@H]4[C@H](c4ccccc4)[C@]3(C)C2=O)cc1	inconclusive: 29.1 µM [cytotoxic, single point]	
CC(C)(O)C(O)COc1c2ccoc2cc2oc(=O)ccc12 (stereo not drawn)	inconclusive: 29.1 µM [cytotoxic, single point]	
CCN1CCN(c2ncnc3scc(-c4ccc(OC)cc4)c23)CC1	inconclusive: 14.6 µM [rising, partial curve, poor fit]	
O=C(CNc1ccc(Br)cc1)Nc1ccc(S(=O)(=O)N2CCCCC2)cc1	inactive	
COc1ccccc1C(=O)NNC(=O)C1CC=CCC1 (stereo not drawn)	inactive	
Cc1ccc(S(=O)Cc2ccc(C(=O)N3CCN(C4CCCCC4)CC3)o2)cc1 (stereo not drawn)	inconclusive: 16.4 µM [cytotoxic, partial curve, poor fit]	
O=C(N1CCCCC1)N1CCN(S(=O)(=O)c2ccccc2)CC1	inconclusive: 32.6 µM [rising, partial curve, poor fit]	
Nc1ccc(C(=O)NCCCSc2ccccc2)cc1[N+](=O)[O-]	inconclusive: 18.4 µM [rising, single point]	
COc1ccc(NCc2ccc([N+](=O)[O-])s2)c(OC)c1	inconclusive: 29.1 µM [cytotoxic, single point]	
Cc1cnc(NC(=O)COc2cccc3c2OC(C)(C)C3)s1	inconclusive: 10.3 µM [cytotoxic, partial curve]	
CCCCCc1c(-c2ccc(F)cc2F)ncn1CCc1ccccc1OC	inconclusive: 29.1 µM [cytotoxic, single point]	
COc1cc2[nH]c(=O)n(Cc3ccc(C(=O)NC4CCN(Cc5ccccc5)CC4)cc3)c(=O)c2cc1OC	inconclusive: 16.4 µM [cytotoxic, single point]	
COc1ccc(C(=O)/C=C/c2ccc(OC(=O)c3cc(OC)c(OC)c(OC)c3)cc2)cc1	inconclusive: 29.1 µM [cytotoxic, single point]	

As a short view, three of the compounds above:
SMILES	Potency	activity change, negative = cytotoxic
COc1ccc(OC)c(C2C=C(c3ccc(C)c(C)c3)Nc3nnnn32)c1 (stereo not drawn)	active: 6.51 µM	
O=C1NCCc2c1[nH]c1ccc([N+](=O)[O-])cc21	active: 1.64 µM	
COc1ccc2c(c1)OC[C@H]1[C@H]2N2C(=O)c3ccccc3NC(=O)[C@@]2(C)[C@H]1c1ccccc1	active: 20.6 µM	

Remaining list, next part

SMILES	Potency	activity change, negative = cytotoxic
COc1ccc(OC)c(-c2noc(N3CCN(c4cccc(C)c4C)CC3)n2)c1	inconclusive: 23.1 µM [cytotoxic, single point]	
CCn1c(SCC(=O)N2CCc3ccccc32)nnc1-c1c[nH]c2ccccc12	inconclusive: 29.1 µM [cytotoxic, single point]	
CC(C)(C)OC(=O)N(CCc1ccccc1)Cc1ccc(OCc2cccc(NC(=O)C3CCC3)c2)cc1	inconclusive: 1.64 µM [cytotoxic, full curve, poor fit]	
Cc1ccc(NC(=O)CSC2=C(C#N)C(c3ccco3)CC(=O)N2)cc1 (stereo not drawn)	inconclusive: 16.4 µM [cytotoxic, single point]	
COc1ccc(-c2sc3ccccc3c2-c2ccc(O)cc2)cc1	inconclusive: 14.6 µM [cytotoxic, partial curve]	
COc1ccc(NC(=O)CSc2ccc3c4c(cccc24)C(=O)c2ccccc2-3)cc1	inconclusive: 25.9 µM [cytotoxic, single point]	
COc1cccc(C#CC2=CC(=O)CC(C)(C)C2)c1	inconclusive: 23.1 µM [cytotoxic, single point]	
COc1ccc(CN2CCN(C(=O)Cn3nc(C(=O)O)c4ccccc4c3=O)CC2)cc1F	inconclusive: 11.6 µM [cytotoxic, partial curve, poor fit]	
O=C(COc1cccc2ccccc12)NNC(=O)c1cnccn1	inactive	
Cc1nn(-c2ccc(F)cc2F)c2c1-c1nc(N3CCCC3)ncc1CC2	inconclusive: 29.1 µM [cytotoxic, single point]	
CC1CCCN(CC(O)COc2ccc(-c3ccccc3)cc2)C1 (stereo not drawn)	inconclusive: 9.2 µM [cytotoxic, partial curve]	
c1ccc(-c2nn(-c3ccccc3)[n+](-c3ccccc3)n2)cc1	active: 7.31 µM	
Cc1c(/C=N/NC(=O)c2ccccc2O)c2ccccn2c1C(=O)c1ccc(F)cc1	inconclusive: 29.1 µM [cytotoxic, single point]	
COc1cccc(NC(=S)N2CCn3c(nc4ccccc43)C2)c1	inconclusive: 20.6 µM [cytotoxic, partial curve]	
O=C(COc1cccnc1[N+](=O)[O-])Nc1cc(Cl)ccc1Cl	inconclusive: 29.1 µM [rising, single point]	
COc1cccc(C(=O)Nc2ccc(S(=O)(=O)N(Cc3ccccc3)c3ccccc3)cc2)c1	inconclusive: 20.6 µM [cytotoxic, single point]	
O=C(CSc1nnc2scc(-c3ccccc3)n12)Nc1nsc(-c2ccccc2)n1	inconclusive: 10.3 µM [cytotoxic, partial curve]	
O=C(CN1CCN(C(c2ccccc2)c2ccccc2)CC1)N1N=CCC1c1ccccc1 (stereo not drawn)		inconclusive: 23.9%
Cc1ccn2c(Cc3ccccc3)c(-c3ccc(F)cc3)nc2c1	inconclusive: 29.1 µM [cytotoxic, single point]	
COc1cccc(/C=N/Nc2cc(Cl)nc(C)n2)c1O	inactive	
Cc1ccc(N(CC(=O)Nc2cc(Cl)ccc2Oc2ccccc2)S(C)(=O)=O)c(C)c1	inconclusive: 29.1 µM [cytotoxic, single point]	

— PubChem BioAssay AID1347075 (National Center for Advancing Translational Sciences (NCATS), 2019)
